Source: patent US20140314784A1

Assays:
Experiment in all cases: flow cytometry, CHO cells transiently transfected with the construct, dot plot SSC-A against PE-A
KO_2nd+3rd loop = molecular target: KO_2nd+3rd loop
KO_N+3rd loop = molecular target: KO_N+3rd loop
KO_2nd loop = molecular target: KO_2nd loop
KO_N+2nd loop = molecular target: KO_N+2nd loop

B1: 6C7 (antibody, V domains shown)
VH: QVQLVESGGGVVQPGRSLRLSCAASGFTFSNYVMHWVRQAPGKGLEWVAVIWYDGSNKYYADSVKGRFTISRDNSKNTLSLQMNSLRAEDTAVYYCERGEGYYGSGSRYRGYYYGMDVWGQGTTVTVSS
VL: DIQMTQSPSSLSASVGDRVTITCRASQGIRTDLGWYQQKPGKAPKRLIYAASSLQSGVPSRFSGSGSGTEFTLTISSLQPEDFATYYCLQHNSYPRTFGQGTKVEIK
- binding (KO_2nd+3rd loop): no binding (tested: 0.1 µg/ml)
- binding (KO_N+3rd loop): binds
- binding (KO_2nd loop): no binding (tested: 0.1 µg/ml)
- binding (KO_N+2nd loop): no binding (tested: 0.1 µg/ml)

These are yes or no findings as the source states them, for the method shown. For some of these results: Binding can be weak; no strength is given.
